Results from patent publication US20170326147A1, “INHIBITING BLOOD PRESSURE DROP IN THE TREATMENT OF ERECTILE DYSFUNCTION” (FORMUREX, INC., priority 2014, published 2017).
Structures can show the parent of a compound that is named as a salt. At least one compound was matched to its structure with a doubt left.

Experiment: In vitro dissolution studies (USP dissolution tester type II)
Assay type: physicochemical
Conditions: 2 minutes, freshly prepared, n=3

For CCCc1nn(C)c2c(=O)[nH]c(-c3cc(S(=O)(=O)N4CCN(C)CC4)ccc3OCC)nc12 [sildenafil citrate], the “percentage of drug (sildenafil citrate) dissolved after two minutes” value was 1.8%.
